Results are given in words; binding and its absence hold for the method and conditions named. A result given as binding can be weak or reduced; the word gives no strength.
B1: PPAT-082-01 (antibody, V domains shown)
VH: QVQLQQSGAELMKPGASVKISCKTSGYTFSTYWIEWVKQRPGHGPEWIGEFLPGSGSTNFNEKFKGKATFTADKSSDTAYMQLSSLTSEDSAVYYCTRSGGNFGARFASWGQGTLVTVSA
VL: DIVMTQAAPSVPVTPGESVSISCRSSKSLLSNNGNTYLYWFLQRPGQSPHLLIYRMSSLASGVPDRFSGSGSGTAFTLRISRVEAEDVGVYYCMQHLEYPFTFGGGTKLEIK
B2: PPAT-082-02 (antibody, V domains shown)
VH: EVQLVESGGDLVKPGGSLKLSCAASGFTFSSYGMSWVRQTPDKRLEWVATISSGGSYTYYQDSIKGRFTISRDNAKNTLYLQMSSLKSEDTAMYYCSIGDWADYWGQGTTLTVSS
VL: DIKMTQSPSSMYASLGERVTITCKASQDINSYLSWFQQKPGKSPKTLIHRANRLVAGVPSRFSGSGSGQVYSLTISSLEYEDMGIYFCLQYDEFPLTFGAGTKLELN
B3: cPPAT-082-01 (antibody, human IgG1, V domains shown)
VH: QVQLQQSGAELMKPGASVKISCKTSGYTFSTYWIEWVKQRPGHGPEWIGEFLPGSGSTNFNEKFKGKATFTADKSSDTAYMQLSSLTSEDSAVYYCTRSGGNFGARFASWGQGTLVTVSA
VL: DIVMTQAAPSVPVTPGESVSISCRSSKSLLSNNGNTYLYWFLQRPGQSPHLLIYRMSSLASGVPDRFSGSGSGTAFTLRISRVEAEDVGVYYCMQHLEYPFTFGGGTKLEIK
B4: cPPAT-082-02 (antibody, human IgG1, V domains shown)
VH: EVQLVESGGDLVKPGGSLKLSCAASGFTFSSYGMSWVRQTPDKRLEWVATISSGGSYTYYQDSIKGRFTISRDNAKNTLYLQMSSLKSEDTAMYYCSIGDWADYWGQGTTLTVSS
VL: DIKMTQSPSSMYASLGERVTITCKASQDINSYLSWFQQKPGKSPKTLIHRANRLVAGVPSRFSGSGSGQVYSLTISSLEYEDMGIYFCLQYDEFPLTFGAGTKLELN

Target: cynomolgus monkey CD147 on cells (HSC-F) (cynomolgus monkey)
Experiment: FACS on HSC-F cells

binding, binds:
B1
B2
B3
B4
